# Measurements taken from PubChem BioAssay AID588499 (NMMLSC, 2011).
# In all, about 360,000 compounds went through this assay and about 610 (0.17%) were called active. Inconclusive results, whose numbers are uncertain, are shown with a selection of clear calls. No stated cut-off is given here; in the data, active means inhibition above about 30%; inconclusive means no clear call, values can overlap the other calls; inactive means below that.
# Tested on: Botulinum neurotoxin type A light chain protease (Clostridium botulinum A str. ATCC 3502)
# Assay: blockers of BoNT/A LC substrate cleavage – biochemical, flow cytometry, MLPCN library, primary screen (AID 588499); further: plate controls were buffer without enzyme for full effect and enzyme alone for no effect
# Details: multiplex microsphere protease substrate cleavage, at 10 µM, hits give high values
row,Structure (SMILES),inhibition
1,CCN1/C(=C/C(=S)Nc2ccccc2)Sc2ccccc21,inconclusive: 176%
2,CCC(CC)C(=O)Nc1cccc(C(=O)Nc2ccc3c(c2)OCO3)c1,inconclusive: 0.2%
3,O=C(NCc1ccccc1)C1CCCN1C(=O)Nc1ccccc1[N+](=O)[O-] (configuration not stated),inconclusive: 3.9%
4,Cc1cc(C)c2c(N)c(-c3nnc(SCc4ccc(Cl)cc4)n3C)sc2n1,inconclusive: 9.5%
5,Nc1cc(-c2ccncc2)c[nH]c1=O,inactive: -0.1%
6,Cc1ccc2[nH]cc(C(=O)CN3CCN(C)CC3)c2c1,inconclusive: -1%
7,COc1cccc(-c2csc(N3CCN(S(=O)(=O)c4ccc(F)cc4)CC3)n2)c1,inactive: 1.9%
8,COc1cccc(OC)c1/C=C/C(=O)NC1CCCCC1,inactive: -8.7%
9,CC1CN(S(=O)(=O)c2ccc(C(=O)OCc3ccc(C#N)cc3)cc2)CC(C)O1 (configuration not stated),inconclusive: -1%
10,CC1=C(C(=O)N2CCOCC2)CC(CC(=O)NC2CCCC2)C(=O)N1Cc1ccccc1 (configuration not stated),inactive: -0.3%
11,CCn1c(SCC(N)=O)nnc1-c1ccc(S(=O)(=O)N2CCN(C)CC2)cc1,inconclusive: -4.5%
12,O=C(COc1ccccc1)Nc1ccc(S(=O)(=O)NCc2ccco2)cc1,inconclusive: 3%
13,COCCNC(=O)c1c(NC(=O)c2ccc(Br)o2)n(Cc2ccccc2)c2nc3ccccc3nc12,active: 35.3%
14,CC(C)(C)c1ccc(-c2nnc(N)o2)cc1,inconclusive: 8.9%
15,CC(Oc1ccccc1)c1ccnc2nc(/N=C/N(C)C)nn12 (configuration not stated),inconclusive: 3.5%
16,Cn1c(Cc2nc(-c3cnccn3)no2)nnc1SCC(=O)Nc1ccccc1,inconclusive: -2%
17,O=C(NCc1ccco1)c1sc2cc(Cl)ccc2c1Cl,inconclusive: 2.7%
18,Cc1noc(C)c1COC(=O)c1cc2c3ccccc3n(C)c2s1,inconclusive: 50.5%
19,Cc1ccc(OC(C)C(=O)Nc2ccccc2C(=O)N2CCN(C)CC2)cc1 (configuration not stated),inactive: 1.7%

row,Structure (SMILES),inhibition
1,CCOC(=O)N1CCN(CC(=O)Nc2c(C(=O)OC)[nH]c3ccc(Cl)cc23)CC1,inactive: -0.1%
2,COc1cccc(C(=O)CN(C(=O)c2ccc(Cl)c(Cl)c2)N2C(=O)c3ccccc3C2=O)c1,inconclusive: -2.5%
3,CN1CCc2c(sc3nc(SCC(N)=O)n(-c4ccc(Cl)cc4)c(=O)c23)C1,active: 65.5%
4,CCCCCc1nc2c(c(=O)c3ccccc3n2C)c(=O)n1Cc1ccc(OC)cc1,inconclusive: -32.4%
5,O=C1C(=O)N(c2ccccc2)c2ccccc21,inconclusive: 1.8%
6,CCOC(=O)C1=C(C)NC(=O)NC1c1cccc(OC)c1OCc1ccccc1Cl (configuration not stated),inconclusive: -2.7%
7,O=C(CCCN1C(=O)c2ccccc2C1=O)Nc1ccccc1,inconclusive: 1.8%
8,CCN(CC)c1ccc(C=Nc2ccc(C)cc2C)c(O)c1,active: 36.8%
9,COc1ccc(Cl)cc1NC(=O)N1CCN(c2ccccc2OC)CC1,inconclusive: -15.9%
10,CCOc1ccc(N(CC(=O)N2CCCCC2)S(=O)(=O)c2ccc(Cl)cc2)cc1,inactive: 1.1%
11,O=C(CCC(=O)N(CC(=O)NC1CCCC1)C1CCCC1)Nc1ccccn1,inconclusive: -3.4%
12,CCn1c(SCC(=O)N2CCCc3ccccc32)nc2c1c(=O)n(C)c(=O)n2C,inconclusive: 0.4%
13,CCOC(=O)C(=CNc1cc(C)nn1-c1ccccc1)C(=O)OCC,inconclusive: 8.2%
14,O=C(C1CC1)N1CCC(C(O)(c2ccccc2)c2ccccc2)CC1,inconclusive: 1.5%
15,CCOc1ccccc1C(=O)NC1CCN(Cc2nnnn2C2CCCC2)CC1,inconclusive: 0.8%
16,CCOc1ccc(C(=O)Nc2ccc(NC(=O)c3ccco3)c(Cl)c2)cc1Br,inconclusive: -0.2%
17,O=C(O)c1ccc(Cn2ccc3ccccc32)o1,inconclusive: -3.5%
18,CCNc1nc(NCC)nc(OCCNS(=O)(=O)c2cc(C)ccc2C)n1,inconclusive: -2.2%
19,CCOC(=O)Nc1ccc2c(c1)Nc1ccccc1S2,inconclusive: 0.3%

# In the list so far, 11 have a halogen.
row,Structure (SMILES),inhibition
4,Cc1cc(C)c2c(N)c(-c3nnc(SCc4ccc(Cl)cc4)n3C)sc2n1,inconclusive: 9.5%
7,COc1cccc(-c2csc(N3CCN(S(=O)(=O)c4ccc(F)cc4)CC3)n2)c1,inactive: 1.9%
13,COCCNC(=O)c1c(NC(=O)c2ccc(Br)o2)n(Cc2ccccc2)c2nc3ccccc3nc12,active: 35.3%
17,O=C(NCc1ccco1)c1sc2cc(Cl)ccc2c1Cl,inconclusive: 2.7%
1,CCOC(=O)N1CCN(CC(=O)Nc2c(C(=O)OC)[nH]c3ccc(Cl)cc23)CC1,inactive: -0.1%
2,COc1cccc(C(=O)CN(C(=O)c2ccc(Cl)c(Cl)c2)N2C(=O)c3ccccc3C2=O)c1,inconclusive: -2.5%
3,CN1CCc2c(sc3nc(SCC(N)=O)n(-c4ccc(Cl)cc4)c(=O)c23)C1,active: 65.5%
6,CCOC(=O)C1=C(C)NC(=O)NC1c1cccc(OC)c1OCc1ccccc1Cl (configuration not stated),inconclusive: -2.7%
9,COc1ccc(Cl)cc1NC(=O)N1CCN(c2ccccc2OC)CC1,inconclusive: -15.9%
10,CCOc1ccc(N(CC(=O)N2CCCCC2)S(=O)(=O)c2ccc(Cl)cc2)cc1,inactive: 1.1%
16,CCOc1ccc(C(=O)Nc2ccc(NC(=O)c3ccco3)c(Cl)c2)cc1Br,inconclusive: -0.2%

# Following part:

row,Structure (SMILES),inhibition
1,O=C(C1=C(O)C(=O)N(CCN2CCOCC2)C1c1cccnc1)c1cc2ccccc2o1 (configuration not stated),inactive: -1%
2,Cc1ccc(NS(=O)(=O)c2ccc(CCC(=O)NCCO)cc2)cc1,inconclusive: 5.6%
3,Cc1cc(/C=C2\C(=N)N3N=CSC3=NC2=O)c(C)n1Cc1ccccc1,inconclusive: 2.5%
4,C=CCc1c(C)nc(N2CCSCC2)[nH]c1=O,inconclusive: 11.1%
5,CSc1sc(C(=O)N(C)C)c2c1S(=O)(=O)N(C)c1ccccc1-2,inconclusive: 0.1%
6,Cc1ccc(C2CC(=O)c3cnc(N4CCc5ccccc5C4)nc3C2)cc1 (configuration not stated),inconclusive: 1.6%
7,CS(=O)(=O)N(CC(=O)Nc1ccc(Br)cc1)C1CCCCC1,inconclusive: -6.9%
8,COc1ccc(-c2nnc(NC(=O)c3cc(C)on3)s2)cc1,inconclusive: -2.3%
9,COc1ccc(/C=N/NC(=O)c2ccn[nH]2)cc1CN1CCOCC1,inconclusive: 13.6%
10,COc1cccc(C(=O)NCCS(=O)(=O)NCc2cccs2)c1,inconclusive: 2.8%
11,COC(=O)c1cccc(-c2ccc(/C=N/N3C(=O)C4C5C=CC(C6CC56)C4C3=O)o2)c1 (configuration not stated),inactive: 0.3%
12,Cc1nc2scc(C)n2c(=O)c1S(=O)(=O)NC(C)c1ccccc1 (configuration not stated),inactive: 1.5%
13,COc1ccc(S(=O)(=O)N(C)CC(=O)Nc2ccc(F)cc2)cc1,inconclusive: -2.1%
14,Cc1c(S(=O)(=O)c2ccccn2)c(N)n(Cc2ccccc2Cl)c1C,inconclusive: -7.1%
15,CCN1CCN(CCCNC(=O)c2cc3sccc3n2CC)CC1,inactive: 0.7%
16,CN1OC[C@@H]2CN(C(=O)C(C)(C)C)[C@H](c3cccc(Br)c3)C[C@@H]21,inactive: -0.2%
17,CN(C)c1ncc(S(=O)(=O)c2ccccc2)c(-c2ccc(Cl)cc2Cl)n1,inconclusive: -0.6%
18,CN1CCc2c(c(N3CCCCC3)nc3n[nH]c(N)c23)C1,inconclusive: 1.6%
19,COC(=O)c1c(C(=O)c2ccc(Br)cc2)n(C)c2ccccc12,inconclusive: 3.6%
